Reference: the supplement of paper PMC12595434, “Development of retinoid nuclear receptor pathway antagonists through targeting aldehyde dehydrogenase 1A3” (iScience, 2025)
This is one part of the list. The data scatter; read single values as rough.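 Tm was set to 64 °C where no melting was found, and many curves are irregular.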

Protein sequences, listed by entry. Tags and fused reporters are not part of them. Lines headed by an entry give the natural chain unless they say otherwise; changes in a name come on top.
UniProt Q11201: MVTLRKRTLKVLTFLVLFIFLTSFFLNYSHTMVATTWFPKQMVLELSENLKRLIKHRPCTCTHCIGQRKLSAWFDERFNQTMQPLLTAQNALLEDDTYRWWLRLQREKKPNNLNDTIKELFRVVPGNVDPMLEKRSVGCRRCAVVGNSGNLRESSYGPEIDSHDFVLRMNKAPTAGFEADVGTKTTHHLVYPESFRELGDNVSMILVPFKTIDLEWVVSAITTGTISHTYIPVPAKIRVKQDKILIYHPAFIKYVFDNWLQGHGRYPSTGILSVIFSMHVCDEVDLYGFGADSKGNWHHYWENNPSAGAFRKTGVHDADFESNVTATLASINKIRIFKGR
UniProt P83111: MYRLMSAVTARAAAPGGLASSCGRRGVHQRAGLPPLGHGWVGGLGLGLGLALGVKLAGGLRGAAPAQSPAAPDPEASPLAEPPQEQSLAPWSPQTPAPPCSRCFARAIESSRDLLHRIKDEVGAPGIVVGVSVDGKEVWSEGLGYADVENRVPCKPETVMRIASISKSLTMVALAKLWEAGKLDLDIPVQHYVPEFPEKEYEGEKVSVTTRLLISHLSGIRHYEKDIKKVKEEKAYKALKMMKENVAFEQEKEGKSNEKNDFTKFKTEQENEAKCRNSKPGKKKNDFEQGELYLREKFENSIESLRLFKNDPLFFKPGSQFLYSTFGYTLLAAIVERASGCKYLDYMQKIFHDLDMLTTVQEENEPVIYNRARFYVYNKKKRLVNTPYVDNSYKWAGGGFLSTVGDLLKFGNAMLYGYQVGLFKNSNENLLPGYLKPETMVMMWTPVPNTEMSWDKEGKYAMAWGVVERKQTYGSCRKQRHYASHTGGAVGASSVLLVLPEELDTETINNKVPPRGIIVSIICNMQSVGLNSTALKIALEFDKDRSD
UniProt Q12768: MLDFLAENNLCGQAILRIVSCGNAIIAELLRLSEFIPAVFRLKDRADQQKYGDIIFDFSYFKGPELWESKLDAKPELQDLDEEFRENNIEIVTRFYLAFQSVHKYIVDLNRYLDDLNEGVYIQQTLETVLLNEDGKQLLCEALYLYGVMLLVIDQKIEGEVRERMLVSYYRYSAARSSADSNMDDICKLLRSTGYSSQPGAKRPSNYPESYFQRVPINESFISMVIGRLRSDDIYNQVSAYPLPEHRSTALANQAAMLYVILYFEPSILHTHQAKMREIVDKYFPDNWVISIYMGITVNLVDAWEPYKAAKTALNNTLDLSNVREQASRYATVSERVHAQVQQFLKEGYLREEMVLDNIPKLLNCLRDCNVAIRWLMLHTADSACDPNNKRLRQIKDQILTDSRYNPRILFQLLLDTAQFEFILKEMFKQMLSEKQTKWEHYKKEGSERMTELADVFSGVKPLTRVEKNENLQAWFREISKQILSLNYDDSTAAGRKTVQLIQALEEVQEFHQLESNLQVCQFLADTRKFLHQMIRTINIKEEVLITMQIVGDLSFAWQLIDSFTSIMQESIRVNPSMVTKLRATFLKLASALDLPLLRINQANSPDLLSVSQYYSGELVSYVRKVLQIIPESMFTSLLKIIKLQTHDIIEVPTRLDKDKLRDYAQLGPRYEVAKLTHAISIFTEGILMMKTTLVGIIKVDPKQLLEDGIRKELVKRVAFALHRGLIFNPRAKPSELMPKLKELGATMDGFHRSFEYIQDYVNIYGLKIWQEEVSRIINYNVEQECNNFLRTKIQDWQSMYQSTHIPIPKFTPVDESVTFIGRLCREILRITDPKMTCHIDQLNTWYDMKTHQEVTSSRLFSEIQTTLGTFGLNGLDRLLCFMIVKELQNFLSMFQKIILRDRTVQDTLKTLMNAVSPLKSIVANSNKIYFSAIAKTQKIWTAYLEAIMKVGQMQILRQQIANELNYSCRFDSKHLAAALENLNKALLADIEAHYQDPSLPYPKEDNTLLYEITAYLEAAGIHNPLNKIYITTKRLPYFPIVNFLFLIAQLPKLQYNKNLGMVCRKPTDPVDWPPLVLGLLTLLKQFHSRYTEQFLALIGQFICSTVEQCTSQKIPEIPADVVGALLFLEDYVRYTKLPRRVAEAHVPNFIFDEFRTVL
UniProt Q01167: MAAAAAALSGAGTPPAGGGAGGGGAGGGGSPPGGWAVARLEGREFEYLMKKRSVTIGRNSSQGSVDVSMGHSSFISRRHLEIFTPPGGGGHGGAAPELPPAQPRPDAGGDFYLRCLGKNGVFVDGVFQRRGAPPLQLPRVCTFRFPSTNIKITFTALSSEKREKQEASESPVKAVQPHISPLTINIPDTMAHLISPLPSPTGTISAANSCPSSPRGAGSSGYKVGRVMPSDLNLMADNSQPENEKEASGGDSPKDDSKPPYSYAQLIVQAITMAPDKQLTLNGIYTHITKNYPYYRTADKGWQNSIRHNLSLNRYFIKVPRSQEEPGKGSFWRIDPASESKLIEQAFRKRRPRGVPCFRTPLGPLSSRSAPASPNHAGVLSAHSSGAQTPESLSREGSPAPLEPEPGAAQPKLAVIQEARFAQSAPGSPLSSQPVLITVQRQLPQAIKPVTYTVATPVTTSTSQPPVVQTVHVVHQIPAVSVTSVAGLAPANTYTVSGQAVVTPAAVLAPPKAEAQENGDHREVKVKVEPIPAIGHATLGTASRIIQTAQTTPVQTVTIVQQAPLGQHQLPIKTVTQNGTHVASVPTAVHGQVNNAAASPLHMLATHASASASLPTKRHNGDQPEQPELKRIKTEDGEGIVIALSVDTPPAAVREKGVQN
UniProt Q05084: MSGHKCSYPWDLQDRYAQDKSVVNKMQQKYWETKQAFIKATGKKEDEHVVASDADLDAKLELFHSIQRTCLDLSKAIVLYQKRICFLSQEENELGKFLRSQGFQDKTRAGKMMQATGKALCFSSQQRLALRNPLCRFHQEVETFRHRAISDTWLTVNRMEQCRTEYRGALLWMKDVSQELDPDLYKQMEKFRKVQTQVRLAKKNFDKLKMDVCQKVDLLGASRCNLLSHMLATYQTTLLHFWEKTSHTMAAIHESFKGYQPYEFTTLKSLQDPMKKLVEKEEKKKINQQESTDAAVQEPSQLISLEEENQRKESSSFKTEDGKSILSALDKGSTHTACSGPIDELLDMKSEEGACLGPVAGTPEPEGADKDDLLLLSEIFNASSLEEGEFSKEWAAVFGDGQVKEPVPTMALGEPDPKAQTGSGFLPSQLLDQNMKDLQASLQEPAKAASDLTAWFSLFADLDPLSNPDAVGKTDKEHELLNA
UniProt P98194: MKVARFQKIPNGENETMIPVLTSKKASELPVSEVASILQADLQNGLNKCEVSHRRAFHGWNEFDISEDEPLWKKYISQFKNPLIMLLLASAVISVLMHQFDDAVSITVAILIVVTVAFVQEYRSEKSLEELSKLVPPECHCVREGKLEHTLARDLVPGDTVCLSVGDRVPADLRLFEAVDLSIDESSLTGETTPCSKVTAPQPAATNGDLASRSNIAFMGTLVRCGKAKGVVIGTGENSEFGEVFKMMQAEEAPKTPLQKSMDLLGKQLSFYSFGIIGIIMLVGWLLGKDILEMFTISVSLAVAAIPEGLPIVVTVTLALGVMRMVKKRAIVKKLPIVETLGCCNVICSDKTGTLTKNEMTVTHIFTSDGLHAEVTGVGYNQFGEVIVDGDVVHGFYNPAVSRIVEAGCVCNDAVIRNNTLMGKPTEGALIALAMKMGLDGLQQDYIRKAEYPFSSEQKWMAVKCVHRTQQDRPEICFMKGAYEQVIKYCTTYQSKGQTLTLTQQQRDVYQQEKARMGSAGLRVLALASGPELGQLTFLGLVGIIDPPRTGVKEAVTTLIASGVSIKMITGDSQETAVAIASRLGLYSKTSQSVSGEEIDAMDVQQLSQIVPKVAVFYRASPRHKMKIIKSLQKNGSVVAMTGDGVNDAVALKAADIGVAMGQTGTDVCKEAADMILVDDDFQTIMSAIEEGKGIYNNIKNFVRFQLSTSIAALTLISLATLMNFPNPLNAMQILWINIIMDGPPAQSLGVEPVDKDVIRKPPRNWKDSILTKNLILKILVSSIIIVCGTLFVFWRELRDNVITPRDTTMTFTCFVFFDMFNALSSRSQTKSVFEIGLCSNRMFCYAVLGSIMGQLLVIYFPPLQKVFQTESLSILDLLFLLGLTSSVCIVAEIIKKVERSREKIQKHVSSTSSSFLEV
UniProt Q06210: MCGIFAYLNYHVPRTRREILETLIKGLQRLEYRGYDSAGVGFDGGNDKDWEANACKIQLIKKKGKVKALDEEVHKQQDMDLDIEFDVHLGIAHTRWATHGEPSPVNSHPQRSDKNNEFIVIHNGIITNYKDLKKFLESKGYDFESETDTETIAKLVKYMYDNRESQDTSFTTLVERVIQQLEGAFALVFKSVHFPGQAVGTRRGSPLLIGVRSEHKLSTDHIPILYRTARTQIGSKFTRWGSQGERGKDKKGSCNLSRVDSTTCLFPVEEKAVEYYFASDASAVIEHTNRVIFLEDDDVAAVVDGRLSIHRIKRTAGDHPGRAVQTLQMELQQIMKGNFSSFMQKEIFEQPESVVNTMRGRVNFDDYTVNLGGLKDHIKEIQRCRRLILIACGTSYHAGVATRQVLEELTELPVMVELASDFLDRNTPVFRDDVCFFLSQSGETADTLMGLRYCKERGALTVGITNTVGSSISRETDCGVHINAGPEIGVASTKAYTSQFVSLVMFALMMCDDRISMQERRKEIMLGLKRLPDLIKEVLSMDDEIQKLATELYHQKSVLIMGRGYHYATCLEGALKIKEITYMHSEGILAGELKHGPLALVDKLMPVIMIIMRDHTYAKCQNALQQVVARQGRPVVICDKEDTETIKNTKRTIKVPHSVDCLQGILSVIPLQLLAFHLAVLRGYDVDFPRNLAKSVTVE
UniProt P80303: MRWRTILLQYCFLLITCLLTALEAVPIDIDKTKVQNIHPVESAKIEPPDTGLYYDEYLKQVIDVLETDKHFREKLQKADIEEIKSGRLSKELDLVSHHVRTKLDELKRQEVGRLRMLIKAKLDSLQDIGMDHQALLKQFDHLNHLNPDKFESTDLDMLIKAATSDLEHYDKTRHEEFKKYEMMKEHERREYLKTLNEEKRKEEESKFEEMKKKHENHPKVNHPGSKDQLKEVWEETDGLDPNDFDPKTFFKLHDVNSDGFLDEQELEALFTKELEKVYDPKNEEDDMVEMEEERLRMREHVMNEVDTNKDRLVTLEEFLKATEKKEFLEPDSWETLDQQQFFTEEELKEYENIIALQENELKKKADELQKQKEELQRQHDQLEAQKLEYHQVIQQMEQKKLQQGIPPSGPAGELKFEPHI
UniProt P78316: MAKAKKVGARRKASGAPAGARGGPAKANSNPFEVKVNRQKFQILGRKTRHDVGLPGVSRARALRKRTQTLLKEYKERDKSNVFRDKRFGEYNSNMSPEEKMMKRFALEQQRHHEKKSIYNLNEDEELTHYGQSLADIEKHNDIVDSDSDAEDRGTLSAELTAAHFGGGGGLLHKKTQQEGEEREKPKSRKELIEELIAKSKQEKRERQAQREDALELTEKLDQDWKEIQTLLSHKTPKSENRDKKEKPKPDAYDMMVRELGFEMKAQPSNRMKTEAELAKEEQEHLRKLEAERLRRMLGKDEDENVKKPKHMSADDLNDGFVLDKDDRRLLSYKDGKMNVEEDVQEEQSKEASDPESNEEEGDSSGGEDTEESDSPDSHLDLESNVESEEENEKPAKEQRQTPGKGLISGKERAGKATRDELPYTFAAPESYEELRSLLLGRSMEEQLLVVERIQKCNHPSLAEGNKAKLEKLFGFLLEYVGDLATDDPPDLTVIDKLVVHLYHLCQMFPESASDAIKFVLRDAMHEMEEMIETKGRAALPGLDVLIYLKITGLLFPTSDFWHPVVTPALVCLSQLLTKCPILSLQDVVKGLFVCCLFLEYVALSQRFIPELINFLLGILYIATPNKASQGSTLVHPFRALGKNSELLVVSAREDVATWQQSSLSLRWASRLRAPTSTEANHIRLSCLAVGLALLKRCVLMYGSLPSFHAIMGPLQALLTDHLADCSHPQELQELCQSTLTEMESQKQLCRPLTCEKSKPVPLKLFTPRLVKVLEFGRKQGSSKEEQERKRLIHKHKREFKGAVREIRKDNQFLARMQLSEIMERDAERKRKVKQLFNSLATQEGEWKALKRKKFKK
UniProt Q07812, whole entry: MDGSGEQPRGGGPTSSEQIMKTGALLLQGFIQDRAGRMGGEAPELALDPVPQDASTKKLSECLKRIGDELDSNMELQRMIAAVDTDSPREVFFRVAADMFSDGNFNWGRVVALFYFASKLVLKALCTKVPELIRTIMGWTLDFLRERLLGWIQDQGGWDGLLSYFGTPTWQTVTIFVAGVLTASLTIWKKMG
UniProt Q04917: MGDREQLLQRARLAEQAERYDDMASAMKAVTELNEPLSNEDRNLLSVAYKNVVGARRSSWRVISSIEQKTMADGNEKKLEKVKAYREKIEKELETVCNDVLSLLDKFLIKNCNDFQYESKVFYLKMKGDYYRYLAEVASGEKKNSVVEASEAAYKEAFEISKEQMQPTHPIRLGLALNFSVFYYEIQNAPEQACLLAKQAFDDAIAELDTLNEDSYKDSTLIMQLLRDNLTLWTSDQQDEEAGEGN

Compound: CCc1cnccc1C(=O)Nc1cc2c(cc1F)NC(=O)CC2
Assay: melting temperature shift (DMSO Tm minus MBE1-treated Tm) in cellular thermal proteome profiling; higher = less thermal stabilization by MBE1 (negative = stabilized by MBE1)
Details: A375

Target	melting temperature shift (MBE1 concentration: 100 nM) [°C]	melting temperature shift (MBE1 concentration: 1 uM) [°C]
AHNAK (UniProt Q09666)	-1.42	0.482
PIP4K2B (UniProt P78356)	0.195	-0.452
UniProt Q11201	-1.13	
LACTB (UniProt P83111)	-0.335	0.557
UniProt Q02086		1.35
UniProt Q02446		-0.325
CDK5 (UniProt Q00535)	0.0122	-0.55
KIAA0196 (UniProt Q12768)	0.287	0
UniProt P78563		0.151
UniProt P79483		-2.93
UniProt Q02156	-3.47	5.06
C1QBP (UniProt Q07021)	0.0122	0.379
FOXK2 (UniProt Q01167)	-0.916	0.0897
UniProt P69905		1.25
CYCS (UniProt P99999)	-2.63	-1.82
HDLBP (UniProt Q00341)	-0.728	-0.199
BNIP2 (UniProt Q12982)		-0.664
ARHGAP4 (UniProt P98171)	-0.879	0.032
UniProt Q05084	0.366	0.653
RBM3 (UniProt P98179)	-1.5	
CSTF3 (UniProt Q12996)	-0.373	0.269
UniProt Q02952		-3.21
FOXK1 (UniProt P85037)	0.368	0.0366
ATP2C1 (UniProt P98194)	-0.496	0.785
TOP2B (UniProt Q02880)	0.415	0.421

Target	melting temperature shift (MBE1 concentration: 100 nM) [°C]	melting temperature shift (MBE1 concentration: 1 uM) [°C]
GFPT1 (UniProt Q06210)	-1.05	0.57
PITPNA (UniProt Q00169)	-1.27	0.635
DHODH (UniProt Q02127)	-1.72	-0.919
CKAP4 (UniProt Q07065)	-1.16	0.189
MLLT1 (UniProt Q03111)	-0.238	-0.177
PPP3CA (UniProt Q08209)	-1.53	0.731
UniProt P80303		-3.01
UniProt Q08357		-2.21
RPL18A (UniProt Q02543)	-0.519	0.427
PMPCA (UniProt Q10713)	-0.563	0.287
UniProt P83881	-0.372	-0.147
NOP14 (UniProt P78316)	-0.173	-0.263
BAX (UniProt Q07812)	-2.52	-2.17
PAFAH1B2 (UniProt P68402)	-0.0753	-0.334
UniProt Q02750	-0.436	-0.0268
YWHAH (UniProt Q04917)	-0.583	-0.148
PRKCQ (UniProt Q04759)	-0.427	-0.14
TRAF2 (UniProt Q12933)	-0.268	0.417
UniProt P81877	-1.15	0.194
ABR (UniProt Q12979)	-0.822	-0.824
HNRNPU (UniProt Q00839)	-0.348	-0.466
MYO1E (UniProt Q12965)	0.556	0.147
UniProt Q05397	-0.483	0.637
UniProt Q12962	-3.08	-3.25
FPGS (UniProt Q05932)	-0.48	-0.634

Target	melting temperature shift (MBE1 concentration: 100 nM) [°C]	melting temperature shift (MBE1 concentration: 1 uM) [°C]
TAP2 (UniProt Q03519)	-0.141	-0.113
EP300 (UniProt Q09472)	0.36	0.122
STRN3 (UniProt Q13033)	-0.316	0.318
UniProt Q07343	-1.39	-3.17
RHOG (UniProt P84095)	-1.5	2.15
UniProt Q07817	-1.25	-1.73
ARF5 (UniProt P84085)	-1.3	-2.66
POLE (UniProt Q07864)	-0.314	-0.34
SLC7A5 (UniProt Q01650)	-3.01	-0.161
TJP1 (UniProt Q07157)	0.36	-0.0794
TRAP1 (UniProt Q12931)	-0.379	0.318
UniProt Q06830	-0.194	-0.818
TFCP2 (UniProt Q12800)	-0.378	-0.808
UniProt Q00536	-0.999	0.703
UniProt Q04724	-0.678	-0.69
KIF23 (UniProt Q02241)	0.047	-0.268
MRPS9 (UniProt P82933)	-2.01	-1.62
PLAUR (UniProt Q03405)	-4.59	-0.36
EXOSC10 (UniProt Q01780)	-0.0192	-0.179
APLP2 (UniProt Q06481)	-0.58	-0.458
UniProt Q08174	-2.94	-1.36
RPP38 (UniProt P78345)	-0.181	-0.255
DAB2 (UniProt P98082)	0.0847	-0.42

Single entries from the results shown.
Entry for TRAP1 (UniProt Q12931) under melting temperature shift (MBE1 concentration: 100 nM) [°C]: -0.379
Entry for TAP2 (UniProt Q03519) under melting temperature shift (MBE1 concentration: 100 nM) [°C]: -0.141
